PubChem BioAssay AID1259308, NCATS | 2017
Purpose: 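Genes whose loss raises luciferase production in HEK293 cells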 (primary screen). System: human HEK293 embryonic kidney cells stably expressing firefly luciferase (HEK-CMV-Luc2-Hygro). Reagent: single siRNA against human genes, 0.8 pmol siRNA per well. Time to read-out: 72 h. Read-out: 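Luciferase light (ONE-Glo) measured on one replicate plate set and viability (CellTiter-Glo) on the other, scaled to a negative control siRNA, with robust z-scores and luciferase per cell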. Reading the numbers: total luciferase, z-score and total luciferase, % of control: higher = more reporter protein produced; luciferase per cell, z-score: higher = more reporter output per viable cell; viable cells, % of control: higher = more viable cells. Active means: 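Active when the median/MAD z-score for overall luciferase is greater than 3; a gene was taken forward for validation with new siRNAs if at least two of its three siRNAs passed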. Meaning of the calls: active = raised luciferase; inactive = no rise.
The deposit covers about 59,000 reagents; below is an unselected part. In the full data, about 1,510 (2.6%) were called active. 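Calls use total luciferase alone and ignore viability, so some active siRNAs may act by altering cell number.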 Reagent sequences are not shown.

Gene | PubChem SID | total luciferase, z-score | total luciferase, % of control | luciferase per cell, z-score | viable cells, % of control | outcome
SCG2 (secretogranin II) | SID160719420 | 1.44 | 110 | 0.422 | 110 | inactive
SCG2 (secretogranin II) | SID160719421 | 1.31 | 108 | 0.796 | 97.8 | inactive
SCG2 (secretogranin II) | SID160719423 | 0.339 | 88.6 | -0.311 | 107 | inactive
OR1L6 (olfactory receptor family 1 subfamily L member 6) | SID160733287 | -0.0286 | 81.3 | 0.404 | 81.7 | inactive
OR1L6 (olfactory receptor family 1 subfamily L member 6) | SID160766757 | -0.751 | 66.9 | -0.175 | 78.3 | inactive
OR1L6 (olfactory receptor family 1 subfamily L member 6) | SID160766758 | 3.08 | 143 | 2.92 | 74.2 | active
MOV10L1 (Mov10 like RNA helicase 1) | SID160741704 | -1.64 | 49.4 | -2.15 | 97.1 | inactive
MOV10L1 (Mov10 like RNA helicase 1) | SID160741705 | 0.362 | 89.1 | -0.0293 | 100 | inactive
MOV10L1 (Mov10 like RNA helicase 1) | SID160741706 | 0.214 | 86.1 | 1.14 | 71.4 | inactive
BCL7B (BAF chromatin remodeling complex subunit BCL7B) | SID160721860 | -0.143 | 79 | -0.547 | 102 | inactive
BCL7B (BAF chromatin remodeling complex subunit BCL7B) | SID160721861 | -2.37 | 34.7 | -2.9 | 83.2 | inactive
BCL7B (BAF chromatin remodeling complex subunit BCL7B) | SID160735203 | -0.181 | 78.3 | -0.291 | 94.4 | inactive
GRAMD1A (GRAM domain containing 1A) | SID160746505 | -0.385 | 74.2 | -0.915 | 106 | inactive
GRAMD1A (GRAM domain containing 1A) | SID160746507 | 0.875 | 99.3 | 0.452 | 98.5 | inactive
GRAMD1A (GRAM domain containing 1A) | SID160746508 | -0.1 | 79.9 | -0.575 | 104 | inactive
SLC39A13 | SID160753921 | -0.491 | 72.1 | -0.654 | 95.7 | inactive
SLC39A13 | SID160753922 | -1.27 | 56.7 | -0.813 | 78.4 | inactive
SLC39A13 | SID160753923 | 0.288 | 87.6 | 0.355 | 89.2 | inactive
FRRS1L (ferric chelate reductase 1 like) | SID160736822 | -0.199 | 77.9 | -0.254 | 93.1 | inactive
FRRS1L (ferric chelate reductase 1 like) | SID160736823 | -0.971 | 62.6 | -1.42 | 102 | inactive
FRRS1L (ferric chelate reductase 1 like) | SID160736824 | 0.822 | 98.2 | 1.19 | 80.3 | inactive
HES6 (hes family bHLH transcription factor 6) | SID160731508 | -1.02 | 61.6 | -1.03 | 90.3 | inactive
HES6 (hes family bHLH transcription factor 6) | SID160731509 | 0.366 | 89.2 | 0.905 | 78.5 | inactive
HES6 (hes family bHLH transcription factor 6) | SID160743713 | -0.189 | 78.1 | 0.292 | 80.8 | inactive

Targets listed so far whose target name begins with O or o:
Gene | PubChem SID | total luciferase, z-score | total luciferase, % of control | luciferase per cell, z-score | viable cells, % of control | outcome
OR1L6 (olfactory receptor family 1 subfamily L member 6) | SID160733287 | -0.0286 | 81.3 | 0.404 | 81.7 | inactive
OR1L6 (olfactory receptor family 1 subfamily L member 6) | SID160766757 | -0.751 | 66.9 | -0.175 | 78.3 | inactive
OR1L6 (olfactory receptor family 1 subfamily L member 6) | SID160766758 | 3.08 | 143 | 2.92 | 74.2 | active
